The values that follow are results of earlier work, collected in publication PMC12024457 (Antioxidants, 2025).

The conditions of this series: water, room temperature, neutral pH; cited from earlier work.

The structures appear in SMILES notation.

For `COc1cc(/C=C/C(=O)CC(=O)/C=C/c2ccc(O)c(OC)c2)ccc1O` [Curcumin], the “Solubility (μM)” value is “Insoluble [31]”.
